Consider 60 molecules from the supplement of paper PMC7858590.

± gives the standard deviation of the averaged measurements. Over roughly 3,800 compounds, “cell shape (eccentricity) Z-score vs DMSO control” has its median near 1.1; the lowest 2% begin near -4.7. Some of the results follow.

For the assay, the system named is human monocyte-derived macrophages (M0). Briefly: cell shape (eccentricity) Z-score vs DMSO control; higher = more elongated, M2-like morphology. Particulars: 20 µM; 24 h; macrophage state: M0 (M-CSF).
`Cc1onc(-c2ccccc2)c1C(=O)NC1C(=O)N2[C@@H]1SC(C)(C)[C@@H]2C(=O)O` (stereo not given in full): the “cell shape (Z-score)” value amounted to 2.28.

On to `Cc1c(C(=O)Nc2ccc(N3C[C@@H](C)O[C@@H](C)C3)nc2)cccc1-c1ccc(OC(F)(F)F)cc1`, for which the “cell shape (Z-score)” value is 7.49. Consider `CCN1CCC[C@H]1CNC(=O)c1cc(S(N)(=O)=O)ccc1OC`, for which the “cell shape (Z-score)” value is 2.4.

For the molecule `Cc1nc2c(OCc3ccccc3)cccn2c1CC#N`, the “cell shape (Z-score)” value stood at 1.89. In the case of `CO[C@H]1C(=O)c2c(O)c(CC=C(C)C)c(O)c(CC=C(C)C)c2O[C@@H]1c1ccc(O)cc1`, the “cell shape (Z-score)” value is 0.31. Regarding `CN(C)[C@@H]1CCc2[nH]c3ccc(NC(=O)c4ccc(F)cc4)cc3c2C1`, the “cell shape (Z-score)” value was found to be 1.27.

In the case of `CC(C)C(=O)Nc1cccc(C(F)(F)F)c1`, the “cell shape (Z-score)” value is -2.35. As for `CC1=CCC[C@@H]2[C@@](C)(CCc3ccoc3)[C@H](C(=O)O)CC[C@@]12C`, the “cell shape (Z-score)” value was determined as 1.45. Take `COc1cc(O)c(C(=O)CCc2ccccc2)c(O)c1Cc1ccccc1O`: the “cell shape (Z-score)” value was -1.01. As for `COc1cc(C=C(C#N)C(N)=O)cc(CSc2nc3ccccc3s2)c1O`, the “cell shape (Z-score)” value came to 4.48. Regarding `COc1cccc(-c2cc(=O)c3cc(OC)ccc3o2)c1`, the “cell shape (Z-score)” value stood at 3.01. The result for `C/C=C/C1=C(Cl)C(=O)[C@@H](O)[C@@]1(O)C(=O)OC` reads 0.319. Turning to `CC(CCC1(C)C(C)CCC2(CO)C(CO)=CCCC21)CC(=O)O` (stereo not given), the “cell shape (Z-score)” value is 2.53. Take `C=CC(=O)Nc1cccc(Sc2nc(Nc3ccc(N4CCN(C)CC4)cc3)ncc2Cl)c1`: the “cell shape (Z-score)” value amounted to 0.842. On to `O=C(O)c1cc(=O)c2c(OCC(O)COc3cccc4oc(C(=O)O)cc(=O)c34)cccc2o1`, for which the “cell shape (Z-score)” value was -4.64. Take `CN(C)c1ccc(C2Nc3ccc4ccccc4c3C3=C2C(=O)CC(C)(C)C3)cc1Br` (stereo not given): the “cell shape (Z-score)” value turned out to be 3.85. The result for `C=C(C(=O)O)[C@@H]1CC[C@@]2(C)CCC[C@@](C)(O)[C@@H]2C1` reads -2.11; that for `C[C@H](N)C(=O)N[C@@H](C)P(=O)(O)O`, 0.103; that for `COc1ccc(C(=C2C(=O)Nc3ccccc32)c2ccc(OC)cc2)cc1`, 1.61. With `Oc1cc2c(cc1O)C(c1ccccc1)CNCC2` (stereo not given), the “cell shape (Z-score)” value is -0.592.

For the molecule `CC[C@H](Nc1ncnc2[nH]cnc12)c1nc2cccc(F)c2c(=O)n1-c1ccccc1`, the “cell shape (Z-score)” value worked out at 6.34.

As to `O=S(=O)(c1cccc2c(Cl)cccc12)N1CCCNCC1`, the “cell shape (Z-score)” value was 1.65. For `Cc1scc2c1N(C(=O)CN1CCN(C)CC1)c1ccccc1NC2=O`, the “cell shape (Z-score)” value is 0.841. On to `C=C(C)[C@@H]1CC[C@]2(C(=O)O)CC[C@]3(C)[C@H](CC[C@@H]4[C@@]5(C)CC[C@H](O)C(C)(C)[C@@H]5CC[C@]43C)[C@@H]12`, for which the “cell shape (Z-score)” value turned out to be 4.66. Regarding `COC(=O)Nc1nc2cc(C(=O)C3CC3)ccc2[nH]1`, the “cell shape (Z-score)” value is -3.64. The value for `Nc1c2c(nc3ccccc13)CCCC2` was 1.05; that for `COc1cc2c(c(O)c1OC)C(=O)CC(c1ccc(O)cc1)O2` (stereo not given) was 0.892; that for `CCCCC[C@H](CC(=O)NO)C(=O)N[C@H](C(=O)N1CCC[C@H]1CO)C(C)C` was 1.7. `Cc1cccc(C2CN(C)CCc3c2cc(O)c(O)c3Cl)c1` (stereo not given): the “cell shape (Z-score)” value was -1.2.

As to `CC1=CCC[C@@H]2[C@](CCc3ccoc3)(C(=O)O)[C@H](C)CC[C@@]12C`, the “cell shape (Z-score)” value amounted to 1.21. In the case of `C[C@@H]1O[C@@H](OC[C@H]2O[C@@H](OCCc3ccccc3)[C@H](O)[C@@H](O)[C@@H]2O)[C@H](O)[C@H](O)[C@H]1O`, the “cell shape (Z-score)” value was determined as 3.36. Turning to `CN(C)c1nc(N)c(C(=O)Nc2cccnc2)nc1Cl`, the “cell shape (Z-score)” value turned out to be 3.66. On to `CN(C)CCC(c1ccc(Cl)cc1)c1ccccn1` (stereo not given), for which the “cell shape (Z-score)” value was determined as 1.59. For the molecule `Cc1ccc(/C=C2/CNC/C(=C\c3ccc(C)cc3)C2=O)cc1`, the “cell shape (Z-score)” value stood at 4.05. As to `C[C@]1(O)CC[C@@H]2C(C(=O)O)=CO[C@@H](O[C@@H]3O[C@H](COC(=O)c4ccc(O)cc4)[C@@H](O)[C@H](O)[C@H]3O)[C@@H]21`, the “cell shape (Z-score)” value amounted to 0.805. The value for `CCCCC/C=C\C/C=C\C/C=C\C/C=C\CCCC(=O)C(F)(F)F` was 1.99; that for `CC[C@]12CCCN3CCc4c(n(c5ccccc45)[C@](O)(C(=O)OC)C1)[C@@H]32` was 7.05; that for `COc1ccccc1N1CCN(CCN2C(=O)CC3(CCCC3)CC2=O)CC1` was 1.31. In the case of `CC1OC(Oc2cc(O)c3c(=O)c(OC4OC(CO)C(O)C(O)C4OC4OC(C)C(O)C(O)C4O)c(-c4ccc(O)cc4)oc3c2)C(O)C(O)C1O` (stereo not given), the “cell shape (Z-score)” value was found to be 3.29. The result for `COc1cc(Nc2ncc3c(n2)-c2ccc(Cl)cc2C(c2c(F)cccc2OC)=NC3)ccc1C(=O)O` reads 6.23; that for `Cc1oncc1C(=O)Nc1ccc(C(F)(F)F)cc1`, 3.67; that for `COc1ccc(-c2cc(=O)c3c(O)cc(O[C@@H]4O[C@H](CO[C@H]5O[C@H](C)[C@@H](O)[C@H](O)[C@@H]5O)[C@@H](O)[C@H](O)[C@H]4O)cc3o2)cc1O`, -1.9. The result for `CC(=O)NCCc1c(Cc2ccccc2)[nH]c2ccccc12` reads -1.38. With `O=C1Cc2c([nH]c3ccc(Br)cc23)-c2ccccc2N1`, the “cell shape (Z-score)” value was determined as 2.92. In the case of `C=C1C(=O)OC2CC(C)C3(/C=C/C(C)=O)OC3CC12` (stereo not given), the “cell shape (Z-score)” value was -0.845. For the molecule `COc1ccc(CN2C(=O)C3C(c4ccccc4CC34CCCC4)n3nnnc32)cc1` (stereo not given), the “cell shape (Z-score)” value stood at 0.819. The result for `COc1ccccc1-c1cc(=O)c2c(O[C@@H]3O[C@H](CO)[C@@H](O)[C@H](O)[C@H]3O)cc(OC)c(OC)c2o1` reads -1.41; that for `CCOC(=O)c1ccc(O)cc1`, 0.429; that for `Cc1c(Cl)cccc1Nc1ccccc1C(=O)O`, 1.66.

`COc1cc2ncnc(Nc3cccc(O)c3)c2cc1OC`: the “cell shape (Z-score)” value is -0.0551.

As for `CC1=CC=C(C=O)C(C)(C)C1OC(=O)/C=C(\C)CO` (stereo not given), the “cell shape (Z-score)” value amounted to 0.267. As to `O=C(Cc1ccc(-c2ccc(OCCN3CCOCC3)cc2)cn1)NCc1ccccc1`, the “cell shape (Z-score)” value stood at 9.61. With `C=C1C(=O)O[C@@H]2[C@H]3O[C@]3(C)CC/C=C(/C)CC[C@@H]12`, the “cell shape (Z-score)” value is -9.25. `c1ccc2cc(C3=NCCN3)ncc2c1`: the “cell shape (Z-score)” value is -4.69.

With `C/C(=C/CO)CC[C@@H]1[C@@](C)(O)CCC2C(C)(C)CCC[C@]21C` (stereo not given in full), the “cell shape (Z-score)” value was -0.0677 ± 2. The value for `COc1ccc(OC2OC(COC3OCC(O)C(O)C3O)C(O)C(O)C2O)cc1OC` (stereo not given) was 1.25; that for `CC(C)c1ccccc1OC(=O)NCCc1ccc2ccccc2c1` was 3.62; that for `COCc1c(C(C)C)nc(C(C)C)c(/C=C/[C@@H](O)C[C@@H](O)CC(=O)O)c1-c1ccc(F)cc1` was 10.1 ± 0.39. In the case of `CC(C)(C)NCC(O)c1ccc(O)c(CO)c1` (stereo not given), the “cell shape (Z-score)” value came out at 1.42. On to `COC1CC(O[C@H]2CC[C@]3(C)C4CC[C@@]5(C)C(=O)[C@]4(CC[C@@H]3C2)CC[C@@H]5C2=CC(=O)OC2)OC(C)C1OC1OC(COC2OC(CO)C(O)C(O)C2O)C(O)C(O)C1O` (stereo not given in full), for which the “cell shape (Z-score)” value is 0.241.
